Reference: publication PMC8509428, “The Phenoxyalkyltriazine Antagonists for 5-HT6 Receptor with Promising Procognitive and Pharmacokinetic Properties In Vivo in Search for a Novel Therapeutic Approach to Dementia Diseases” (International Journal of Molecular Sciences, 2021)

Chains of the proteins cited; added tags and fusions are not shown.
UniProt P50406, whole entry: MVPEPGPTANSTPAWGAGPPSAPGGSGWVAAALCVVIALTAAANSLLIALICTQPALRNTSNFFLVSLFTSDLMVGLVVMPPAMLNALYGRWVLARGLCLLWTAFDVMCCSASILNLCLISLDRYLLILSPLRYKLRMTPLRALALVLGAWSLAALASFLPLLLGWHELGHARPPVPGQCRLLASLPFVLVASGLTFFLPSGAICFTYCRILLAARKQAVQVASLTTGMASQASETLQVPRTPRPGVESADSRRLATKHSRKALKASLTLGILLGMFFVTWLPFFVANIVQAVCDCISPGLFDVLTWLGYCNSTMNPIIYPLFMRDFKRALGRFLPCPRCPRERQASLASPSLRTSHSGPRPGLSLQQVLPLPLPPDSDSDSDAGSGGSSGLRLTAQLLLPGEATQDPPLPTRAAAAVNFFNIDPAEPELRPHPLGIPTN

Biological target: human serotonin 5-HT6 receptor (Homo sapiens, UniProt P50406)
Test: Functional assay for 5-HT6 receptor (cAMP, 1321N1 cells)

## COc1ccc(NS(=O)(=O)c2ccc(I)cc2)cc1N1CCN(C)CC1 [SB258585]
Table S1
  5-HT6 Antagonist Mode pIC50: 8.22
read-out: 5-HT6 Antagonist Mode IC50, Table S1
  IC50: 6 nM
read-out: 5-HT6 Antagonist Mode Kb, Table S1
  Kb: 1.2 nM
± SEM, normalized to SB258585 10^−5 M
  5-HT6R Antagonist Mode pKb: 8.92 ± 0.10
